Three sequences from publication PMC6344858 can be followed below.

The exact form of at least one protein or probe is not confirmed. For part of these data: A negative result means that nothing was seen under these conditions. For part of these data: At least one verdict was read from the data and is not stated in words by the source.

One data set has as its target PfoI F99A (UniProt A0A452CST9). Kind of data set: EMSA. The settings on record: 5 mM Ca2+, nonspecific-mobility complex; EMSA: 40 mM Tris-acetate pH 8.3, 5 mM Ca acetate, 0.1 mg/ml BSA, 10% glycerol, room temperature, 15 min; 0.2 nM DNA, 0.05-1000 nM dimer; recombinant protein; label: 5'-33P.
In data set [1] the target is T1, PfoI WT (UniProt A0A452CST9). Kind of data set: EMSA. The settings on record: 5 mM Ca2+, EMSA: 40 mM Tris-acetate pH 8.3, 5 mM Ca acetate, 0.1 mg/ml BSA, 10% glycerol, room temperature, 15 min, 0.2 nM DNA, 0.05-1000 nM dimer, recombinant protein, label: 5'-33P.
Another data set concerns the target PfoI E113A (UniProt A0A452CST9). Kind of data set: EMSA. The settings on record: 5 mM Ca2+, EMSA: 40 mM Tris-acetate pH 8.3, 5 mM Ca acetate, 0.1 mg/ml BSA, 10% glycerol, room temperature, 15 min, 0.2 nM DNA, 0.05-1000 nM dimer, recombinant protein, label: 5'-33P.
The next data set deals with PfoI R100A (UniProt A0A452CST9). Kind of data set: EMSA. The settings on record: 5 mM Ca2+, nonspecific-mobility complex; EMSA: 40 mM Tris-acetate pH 8.3, 5 mM Ca acetate, 0.1 mg/ml BSA, 10% glycerol, room temperature, 15 min; 0.2 nM DNA, 0.05-1000 nM dimer; recombinant protein; label: 5'-33P.
Another data set addresses PfoI F99A-R100A (UniProt A0A452CST9). Nature of the data set: EMSA. The settings on record: 5 mM Ca2+, nonspecific-mobility complex; EMSA: 40 mM Tris-acetate pH 8.3, 5 mM Ca acetate, 0.1 mg/ml BSA, 10% glycerol, room temperature, 15 min; 0.2 nM DNA, 0.05-1000 nM dimer; recombinant protein; label: 5'-33P.
Another data set concerns the target PfoI E167A (UniProt A0A452CST9). Kind of data set: EMSA. The settings on record: 5 mM Ca2+, EMSA: 40 mM Tris-acetate pH 8.3, 5 mM Ca acetate, 0.1 mg/ml BSA, 10% glycerol, room temperature, 15 min, 0.2 nM DNA, 0.05-1000 nM dimer, recombinant protein, label: 5'-33P.
The next data set addresses PfoI D169A (UniProt A0A452CST9). Kind of data set: EMSA. The settings on record: 5 mM Ca2+, EMSA: 40 mM Tris-acetate pH 8.3, 5 mM Ca acetate, 0.1 mg/ml BSA, 10% glycerol, room temperature, 15 min, 0.2 nM DNA, 0.05-1000 nM dimer, recombinant protein, label: 5'-33P.
Data set [2] addresses T1, PfoI WT. Nature of the data set: gel filtration. The settings on record: 5 mM Ca2+, 13.8 uM dimer, dimer:DNA 1:1.2; recombinant protein.

For the sequence “CGCACGACTTCCTGGAAGAGCACGC / GTTGCGTGCTCTTCCAGGAAGTCGTGCG [SP25]”, the Kd with PfoI F99A was 100 nM; in the data set with PfoI WT [1] (fast-mobility specific complex) it was 1 nM; in the data set with PfoI E113A (specific-mobility complex) it was 100 nM; with PfoI R100A it was 10 nM; with PfoI F99A-R100A, 100 nM; in the data set with PfoI E167A (specific-mobility complex) it was 10 nM. Also, in the data set with PfoI D169A (specific-mobility complex), the Kd is 100 nM.
Turning to “CGCACGACTTGTCACAAGAGCACGC / GTTGCGTGCTCTTGTGACAAGTCGTGCG [NSP25]”, the Kd in the data set with PfoI F99A was 100 nM; with PfoI WT [1] (nonspecific-mobility complex), 100 nM; in the data set with PfoI E113A (no complex), over 1000 nM; with PfoI R100A, 10 nM; with PfoI F99A-R100A, 100 nM. Also, the binding result is on record as “binds” in the data set with PfoI E167A (nonspecific-mobility complex); “no binding” in the data set with PfoI D169A (text and table say no complex, but the table also prints Kd 100 nM).
“TAGCTCCAGGACGA / TTCGTCCTGGAGCT [SP14-GF]”: the binding result with PfoI WT [2] is “binds”.
